Results are given in words; binding and its absence hold for the method and conditions named. Binding can be weak; no strength is given.
Biological target: N-terminal half of HLH-2 (C. elegans)
Assay: yeast two-hybrid

- binding: binds
B1: DPY-22 PQ-rich domain (protein, C. elegans, UniProt Q20497 2142-3498, looked up)
chain: QTTRLDKVAKNVQNVLRSNMHHTHVLEFNRPQLLMSDNMFDDIFLAPPDIEITKIIEQPVPVIDEEEAKKRAEEEKEAAEKKEESKNAEDEKNKNNAENKKDTKEGEKGKSKDKEKDGEKEKCKDASKKDDVTSEKNELEKRASDAAAATNAPETNKDMDTSTPKPAPVTRSPATRGRGGGRKRNSGARGGGPRAKRANSRADTAQAAAATTQWNAPIANTSNPAAGGNFHAAMRGNQPPMSNGSSDETKVHIRNLLNRKKEEKRNSLADASAAAAAANSNAMGNTSSMPPSGPPMPMGSSMQSAGATQQLQGMQKHQMGGSMSGMNQNMGGMNQSMSHQAPPPYSSTNEMNRPLMNQYGGPHFAAPNPGPLNRSSGPVSSETRQQIMEQQMREKLAAHHQLVEQQKQRDAREREAREREAREHQERMQREAYMKEQQLLERKRAIEENNRIMEEQQREREMEAARKEAARRAAEEAYAAEQQRLELLRRQEEERLRKEAEERMRIQRENEERVRQEQMRLEAEERERIRRAEEERIQKELEDKVRREKEEAARQEKERQEQEARMREAREAELSRQRMEQQRRSQQNPYMNQQGQYSQQPPPSYQQSSYPNNYQPGQQGNQPPNYQQPSHQSMQQGHQAGYQQTSNQMQMNMQQQQNRQQGGPQQSFSGPGGINQPSQPGYSGYNQQGGQGQQGQMQQQRNPFGNQQDMQQPGAAKLMHAKPNEAHAQQYQHTQNQLSLAQKEKEKQYFQAKNLQASQANAQQQQQRFGDVVAGNVAGYGRPYGQQQLGASDQMGTSQLPGASTSRMNQGSSNPQGGMQSYQQQQPVLGQPGPIQTGQSTQQQIPAQSQQQYNSGRPQMHTTPTKNDMSARAPSGAMGQIANRMGHGTNPQGYGSTGQNVPGGYQQGQQQSGQGSYPQAQQQQPNQYSGSNQQVGQQAQQQQQQPLNQNVSQSQSAAQFGRPSQDSAYQQSGYNQTGNQSYQRPDQQQQGAQQNQWSGSNQAQNQLRSQQQAQQPLQQPQQSQQFQQPAQQAKNPMAQSAQYGGFGGQQQGYDQQQQGQIAPQQAQNPQASQSYGQQQTQQNRYGMGSSGYTANSGGSSNILNQSMEESGLNQGFSGASSNASSQQGGSSQMQQSGYGMPGNQMQMQQNQKQQVQRGMPTGMGQTNMGQSGMGQSGMGQTGMSRSGLGGGIGQQGQQSQQPQQPQVSQQQNQRGMNPGAQLPPYSTGQQQHQPQQSQISQQQQQQDQYRRMQAAQMQQQPTAQGQQNRMGMPSQQQSGAAYSNQMQFQGVRQGQQGMGGMGGSGQQQPQTQPHGSNQYYQQQQDQRMQQQPQQPGQQQQHGYGMGQYPNQQPPNQY

— US20200123499A1 (MIT, published 2020)
